Assay results from paper PMC7011955, “Synthesis and biological evaluation of certain hydrazonoindolin-2-one derivatives as new potent anti-proliferative agents” (Journal of Enzyme Inhibition and Medicinal Chemistry, 2018).

Columns and labels:
[1] = test system: lung cancer A-549 cell line; assay: CellTiter-Glo Luminescent cell viability assay, anti-proliferative activity, A-549; type: cell-based, human; settings: A-549 IC50 vs Sunitinib
Protocol: (§1) The anti-proliferative activity of the title compounds 3a-e, 5a-e, 7a-c, and 10a-l towards cancer cell lines, normal cell lines, and multidrug-resistant lung cancer NCI-H69AR cell line was determined using CellTiter-Glo™ Luminescent cell viability assay according to the previously published procedures[14]^,[15].
The cancer cell growth inhibitory activity of the synthesised 25 compounds 3a-e, 5a-e, 7a-c, and 10a-l was evaluated in vitro towards three human cancer cell lines, namely lung cancer A-549, human colon cancer HT-29, and breast cancer ZR-75 cell lines using CellTiter-Glo™ Luminescent cell viability assay. Sunitinib was included in this assay as a reference drug.
The prepared hydrazonoindolin-2-ones were first evaluated at preliminary anti-proliferative assay against the three cancer cell lines in quadruplicate at a single concentration of 30 µM. The data presented as percentage growth inhibition (GI%) caused by the test compounds (Table 1).

[2] = test system: NCI-H69AR cell line (expresses ABCC1 efflux pump); assay: Growth inhibition of multidrug resistant lung cancer cell line; type: cell-based; settings: NCI-H69AR vs A-549
Protocol: as §1
The anti-proliferative activity of compounds 7b and 10e was evaluated towards multidrug resistant lung cancer cell line (NCI-H69AR), which expresses the ABCC1 efflux pump protein. […] Furthermore, the H69AR cells manifested a lesser degree of resistance to the reference drug, Sunitinib (1.9-fold less sensitive).

| SMILES | times more active than Sunitinib [1] [times] | Fold resistant [2] |
| --- | --- | --- |
| O=C1Nc2ccc(Cl)cc2C1=NN=Cc1ccn[nH]1 [Compound 7b, 3-(((1H-pyrazol-5-yl)methylene)hydrazono)-5-chloroindolin-2-one] | 4.4 | 4.2 |
| O=C1Nc2ccc(Cl)cc2C1=NN=Cc1nccs1 [Compound 5b, 5-Chloro-3-((thiazol-2-ylmethylene)hydrazono)indolin-2-one] | 2 |  |
| CCN(CC)CCNC(=O)c1c(C)[nH]c(/C=C2\C(=O)Nc3ccc(F)cc32)c1C [Sunitinib, reference compound] |  | 1.9 |
| Cc1csc(C=NN=C2C(=O)Nc3ccc(Br)cc32)n1 [Compound 5e, 5-Bromo-3-(((4-methylthiazol-2-yl)methylene)hydrazono)indolin-2-one] | 2.8 |  |
| O=C1Nc2ccc(Cl)cc2C1=NNc1nc(-c2ccccc2)cs1 [Compound 10e, 5-Chloro-3–(2-(4-phenylthiazol-2-yl)hydrazono)indolin-2-one] | 2.1 | 4.0 |
| Cc1csc(C=NN=C2C(=O)Nc3ccc(Cl)cc32)n1 [Compound 5c, 5-Chloro-3-(((4-methylthiazol-2-yl)methylene)hydrazono)indolin-2-one] | 4.7 |  |
